Measurements as given in PubChem BioAssay AID504467 (National Center for Advancing Translational Sciences (NCATS), 2011).
In all, about 330,000 compounds went through this assay and about 7,700 (2.3%) were called active. Inconclusive means that the source gave no clear call. Such entries were picked first, then a sample of the others. The call rests on the fitted dose curve; in most records, active means well fitted inhibition curve with a large enough effect; inconclusive means small, poorly fitted or top-dose-only effect, or effect the other way; inactive means flat fitted curve, though single readings scatter. Potencies beside an inconclusive call are fits to weak or partial responses and may not hold up.

assay: qHTS screen for small molecules that inhibit ELG1-dependent DNA repair in human embryonic kidney (HEK293T) cells expressing luciferase-tagged ELG1; conditions: HEK293T ELG1-luciferase reporter, luminescence, 16 h, DNA damage induced by 5-fluorouridine; series mostly up to 46.1 µM; further: nearly all actives have a fitted effect of over 55% in size
Method in brief: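 Luminescence from the luciferase reporter, measured 30 min after ONE-Glo reagent at room temperature, was the read-out. Beforehand, 2,000 cells per well were exposed for 16 hr at 37 °C to 5-fluorouridine together with compound or vehicle.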
Potency means the concentration at half of the fitted maximal effect.

Compound | Potency
c1ccc(-c2csc3ncnc(NCc4ccccn4)c23)cc1 | active: 11.6 µM
COc1ccc(-c2cccc(NC(=O)c3ccco3)c2)nn1 | inconclusive: 29.1 µM [inhibitor, single point]
CCCCn1c(SCc2c(C)noc2C)nc2cc(S(N)(=O)=O)ccc21 | inconclusive: 10.3 µM [activator, partial curve, poor fit]
Cc1ccc(S(=O)(=O)N(C)CC(=O)Nc2ccncc2)cc1 | inconclusive: 8.2 µM [inhibitor, partial curve, poor fit]
COc1cccc(N2CCN(C(=O)C3CCN(S(=O)(=O)c4ccc5c(c4)CC(C)N5C(C)=O)CC3)CC2)c1 (stereo unspecified) | inconclusive: 14.6 µM [inhibitor, partial curve]
Cc1ccc(NC2=C(NC(=O)c3ccccc3)C(=O)c3ccccc3C2=O)cc1Cl | inconclusive: 29.1 µM [inhibitor, single point]
Brc1ccc(-c2noc(-c3ccccc3)n2)o1 | inconclusive: 16.4 µM [activator, partial curve]
CCc1ccc(/C=N/NC(=O)Cc2cccn2C)cc1 | inconclusive: 14.6 µM [activator, partial curve]
CC(=O)c1cccc2c(O)c(C3=Nc4ccccc4C3=O)[nH]c12 | inconclusive: 2.59 µM [activator, partial curve]
CCOc1ccc(NC(=O)CN2C(=O)/C(=C3\SC(=S)N(C4CCS(=O)(=O)C4)C3=O)c3ccccc32)cc1 (stereo unspecified) | inactive
Cc1cc(C(=O)CSc2nnc(CCC(N)=O)n2C)c(C)n1C1CC1 | inactive
COc1cc(C(=O)OCC(=O)Nc2cc(C)on2)ccc1OCc1ccccc1Cl | inconclusive: 20.6 µM [activator, partial curve]
CC(C)Cc1csc(NC(=O)c2ccccc2Cl)c1C(=O)O | inconclusive: 29.1 µM [activator, single point]
CN1C(=O)/C(=C/c2ccccc2OCc2cccc(F)c2)NC1=S | inconclusive: 5.8 µM [inhibitor, partial curve]
COc1ccc(C(=O)Nc2ccc(C(=O)O)cc2NC(=O)c2ccc(OC)cc2)cc1 | inconclusive: 0.651 µM [inhibitor, partial curve, poor fit]
CCc1noc(C)c1C(=O)N1CCC(CCC(=O)Nc2cccc(C)c2)CC1 | inconclusive: 25.9 µM [inhibitor, single point]
Cc1ccc(C(=O)CSc2ccccn2)cc1 | inconclusive: 8.2 µM [activator, partial curve]
O=C(O)CCC(=O)Nc1cccc(C(=O)Nc2ccc(Br)cc2)c1 | inconclusive: 10.3 µM [activator, partial curve, poor fit]
CCOc1ccc(NS(=O)(=O)c2ccc3[nH]cc(C(=O)NCCOC)c(=O)c3c2)cc1 | inconclusive: 10.3 µM [activator, partial curve]
COc1ccc(-n2nnnc2SCC(=O)Nc2cc(OC)c([N+](=O)[O-])cc2C)cc1 | inconclusive: 9.2 µM [activator, partial curve, poor fit]
CC(C)c1ccc(NC2CCCN(C(=O)c3ccsc3)C2)cc1 (stereo unspecified) | inconclusive: 20.6 µM [inhibitor, partial curve]

Structures shown so far with a COOH group (three):
Compound | Potency
CC(C)Cc1csc(NC(=O)c2ccccc2Cl)c1C(=O)O | inconclusive: 29.1 µM [activator, single point]
COc1ccc(C(=O)Nc2ccc(C(=O)O)cc2NC(=O)c2ccc(OC)cc2)cc1 | inconclusive: 0.651 µM [inhibitor, partial curve, poor fit]
O=C(O)CCC(=O)Nc1cccc(C(=O)Nc2ccc(Br)cc2)c1 | inconclusive: 10.3 µM [activator, partial curve, poor fit]

(cont.)

Compound | Potency
CCOC(=O)N1CCN(S(=O)(=O)c2ccc(C(=O)Nc3ccc(F)cc3F)cc2)CC1 | inconclusive: 1.84 µM [inhibitor, partial curve, poor fit]
CCOC(=O)C1CCN(C(=O)CCc2c(C)nc3cc(-c4ccccc4)nn3c2C)CC1 | inactive
O=C(Nc1ncccc1Cl)c1ccccc1F | inconclusive: 18.4 µM [activator, single point]
CCc1ccc(C2CC(c3ccco3)=NN2S(C)(=O)=O)cc1 (stereo unspecified) | inconclusive: 1.64 µM [activator, full curve]
Cc1cccc(NC(=O)C2CCN(S(=O)(=O)c3cccs3)CC2)n1 | inconclusive: 29.1 µM [inhibitor, single point]
Cc1sc(NC(=O)c2cccc([N+](=O)[O-])c2)c(C(N)=O)c1-c1ccc(C(C)(C)C)cc1 | inactive
O=C(CCc1ccccc1)NC(=S)Nc1ccc(S(=O)(=O)N2CCOCC2)cc1 | inconclusive: 29.1 µM [inhibitor, single point]
CCCN1CCC(=O)N([C@H](CSc2ccccc2)CC(C)C)CC1 | inactive
Cc1ccc(/C=N/Nc2nc(C(C)(C)C)cs2)o1 | inconclusive: 16.4 µM [activator, partial curve]
CCOC(=O)N1CCN(Cc2nc3ccc([N+](=O)[O-])cc3c(=O)n2-c2ccccc2F)CC1 | inconclusive: 14.6 µM [inhibitor, partial curve]
CC1(C)CC2CC(C)(CN2/C=N/c2sc3c(c2C#N)CC(C)(C)NC3(C)C)C1 (stereo unspecified) | active: 23.1 µM
CN(C)c1ccc(C(=O)NCC(c2cccs2)N2CCOCC2)cc1 (stereo unspecified) | inactive
Cc1ccc(CNC(=O)Nc2ccccc2)n1C | inconclusive: 6.51 µM [activator, full curve]
CN(C)c1ccc(N/C=C/C(=O)c2ccco2)cc1 | inconclusive: 0.517 µM [activator, full curve]
Cc1ccc(C)c(N2CCN(C(=O)C3CCN(c4nc(C)cc(C)n4)CC3)CC2)c1 | inconclusive: 20.6 µM [inhibitor, single point]
CCN(CC(=O)Nc1sc2c(c1C#N)CCCC2)Cc1nc2ccccc2c(=O)[nH]1 | active: 14.6 µM
Nc1nc(CSc2nnc(-c3cccc(F)c3)n2-c2ccccc2)nc(N2CCOCC2)n1 | inconclusive: 20.6 µM [inhibitor, single point]
Cc1ccnc(NC(=O)CCC(=O)N(CC(=O)NCc2ccccc2)c2ccc3c(c2)OCO3)c1 | inconclusive: 0.013 µM [inhibitor, full curve, poor fit]
Cc1ccc(-n2nc(CC#N)c(C#N)c2N)cc1 | inconclusive: 29.1 µM [activator, single point]
O=[N+]([O-])c1ccc(/C=C2\CCC(C3=CCCC3)=C2N2CCOCC2)cc1 | inconclusive: 23.1 µM [activator, partial curve, poor fit]
